Experimental data published in article PMC12660617.
No constants are given. Whether binding was seen depends on the method and setting. In cells and extracts the contact can be indirect. Some binding calls cover weakened binding; strength is not graded here.

Chains of the proteins cited; added tags and fusions are not shown.
UniProt O43474: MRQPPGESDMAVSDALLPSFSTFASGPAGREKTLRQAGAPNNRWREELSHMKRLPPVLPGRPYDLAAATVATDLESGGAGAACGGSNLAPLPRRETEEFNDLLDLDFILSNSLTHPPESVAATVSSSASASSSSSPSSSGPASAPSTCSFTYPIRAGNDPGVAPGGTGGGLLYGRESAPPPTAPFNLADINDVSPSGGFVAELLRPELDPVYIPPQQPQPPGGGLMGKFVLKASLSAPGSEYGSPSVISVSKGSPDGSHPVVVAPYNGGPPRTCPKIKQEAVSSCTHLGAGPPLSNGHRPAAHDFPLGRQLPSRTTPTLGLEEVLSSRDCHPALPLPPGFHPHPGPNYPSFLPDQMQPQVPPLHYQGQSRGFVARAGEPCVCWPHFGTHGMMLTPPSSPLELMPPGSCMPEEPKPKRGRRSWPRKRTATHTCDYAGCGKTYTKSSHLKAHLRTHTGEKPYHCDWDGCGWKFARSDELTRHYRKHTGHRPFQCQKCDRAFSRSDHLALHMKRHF
UniProt Q9H4L4: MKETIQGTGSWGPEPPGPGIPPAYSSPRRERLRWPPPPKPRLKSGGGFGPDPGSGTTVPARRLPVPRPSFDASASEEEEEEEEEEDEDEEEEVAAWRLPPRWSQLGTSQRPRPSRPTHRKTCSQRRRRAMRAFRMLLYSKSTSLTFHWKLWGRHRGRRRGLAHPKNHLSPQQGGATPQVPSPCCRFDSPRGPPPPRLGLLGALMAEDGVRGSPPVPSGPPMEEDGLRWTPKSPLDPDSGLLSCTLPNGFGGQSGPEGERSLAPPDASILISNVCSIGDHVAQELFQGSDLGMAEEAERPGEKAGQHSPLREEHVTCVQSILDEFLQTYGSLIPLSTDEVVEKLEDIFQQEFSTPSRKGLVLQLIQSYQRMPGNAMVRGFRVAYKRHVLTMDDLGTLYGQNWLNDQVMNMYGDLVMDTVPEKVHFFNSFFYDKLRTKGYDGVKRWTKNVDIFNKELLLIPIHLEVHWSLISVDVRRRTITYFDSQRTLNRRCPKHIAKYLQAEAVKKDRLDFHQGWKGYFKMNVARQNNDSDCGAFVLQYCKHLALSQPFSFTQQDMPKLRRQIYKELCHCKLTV

Molecular target: Flag-KLF4 (human) (UniProt O43474)
Test: co-IP; HEK293T cells transfected with GFP-SENP3 and/or Flag-KLF4 plasmids for 36 h; Pierce IP Lysis buffer with protease inhibitors and 20 mM N-ethylmaleimide; anti-KLF4 or anti-Flag magnetic beads overnight at 4 °C; immunoblotting

- binding: binds
Substance: GFP-SENP3 (from UniProt Q9H4L4 1-574) (enzyme)
